These are yes or no findings as the source states them, for the method shown. For some of these results: Binding seen in cells or lysates may run through a third protein. Some binding calls cover weakened binding; strength is not graded here.
B1: Repressor/activator protein 1 (RAP1; TRF2-interacting protein), endogenous (protein, UniProt Q9NYB0 1-399)
chain: MAEAMDLGKDPNGPTHSSTLFVRDDGSSMSFYVRPSPAKRRLSTLILHGGGTVCRVQEPGAVLLAQPGEALAEASGDFISTQYILDCVERNERLELEAYRLGPASAADTGSEAKPGALAEGAAEPEPQRHAGRIAFTDADDVAILTYVKENARSPSSVTGNALWKAMEKSSLTQHSWQSLKDRYLKHLRGQEHKYLLGDAPVSPSSQKLKRKAEEDPEAADSGEPQNKRTPDLPEEEYVKEEIQENEEAVKKMLVEATREFEEVVVDESPPDFEIHITMCDDDPPTPEEDSETQPDEEEEEEEEKVSQPEVGAAIKIIRQLMEKFNLDLSTVTQAFLKNSGELEATSAFLASGQRADGYPIWSRQDDIDLQKDDEDTREALVKKFGAQNVARRIEFRKK

By UniProt entry, the sequences of proteins in these tests, tags left out. Where a name states a change or a piece, a line headed by the entry shows the natural chain unless it says otherwise. Chains listed by the source or under a name are the forms on record and can include a tag or linker.
UniProt Q5JTV8: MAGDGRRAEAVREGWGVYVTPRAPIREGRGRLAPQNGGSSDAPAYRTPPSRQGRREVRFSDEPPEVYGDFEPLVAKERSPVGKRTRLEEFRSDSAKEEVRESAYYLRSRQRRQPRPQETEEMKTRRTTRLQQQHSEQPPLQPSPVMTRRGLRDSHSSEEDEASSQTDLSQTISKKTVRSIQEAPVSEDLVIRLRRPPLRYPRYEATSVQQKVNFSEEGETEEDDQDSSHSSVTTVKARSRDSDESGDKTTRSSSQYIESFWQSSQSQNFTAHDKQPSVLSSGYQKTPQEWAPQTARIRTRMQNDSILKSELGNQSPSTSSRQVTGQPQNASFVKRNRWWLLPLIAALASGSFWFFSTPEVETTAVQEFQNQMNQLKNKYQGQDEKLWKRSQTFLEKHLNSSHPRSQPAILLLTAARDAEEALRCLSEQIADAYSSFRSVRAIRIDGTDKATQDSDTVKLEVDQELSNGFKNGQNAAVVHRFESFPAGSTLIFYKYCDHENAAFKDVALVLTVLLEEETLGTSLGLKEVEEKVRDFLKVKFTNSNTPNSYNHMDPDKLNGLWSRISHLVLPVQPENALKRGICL
Human full-length LAP1B (lamina-associated polypeptide 1B, variant 1), in vitro translated (Q5JTV8, form named): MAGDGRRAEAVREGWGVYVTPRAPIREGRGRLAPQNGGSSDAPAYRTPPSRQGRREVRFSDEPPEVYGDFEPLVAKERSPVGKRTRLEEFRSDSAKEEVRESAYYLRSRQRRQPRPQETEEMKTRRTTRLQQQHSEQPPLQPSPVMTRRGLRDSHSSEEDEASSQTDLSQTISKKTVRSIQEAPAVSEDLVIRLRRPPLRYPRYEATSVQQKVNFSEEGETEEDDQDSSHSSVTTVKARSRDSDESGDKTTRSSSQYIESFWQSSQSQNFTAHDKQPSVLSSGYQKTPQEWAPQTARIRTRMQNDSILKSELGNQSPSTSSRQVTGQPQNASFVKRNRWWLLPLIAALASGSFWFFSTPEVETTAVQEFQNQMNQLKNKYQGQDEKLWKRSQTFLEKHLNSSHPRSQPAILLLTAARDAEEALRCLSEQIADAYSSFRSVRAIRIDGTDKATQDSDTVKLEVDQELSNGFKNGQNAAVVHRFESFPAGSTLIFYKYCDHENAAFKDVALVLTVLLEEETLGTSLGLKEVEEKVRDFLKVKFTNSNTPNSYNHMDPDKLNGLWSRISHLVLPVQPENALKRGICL
UniProt Q15554: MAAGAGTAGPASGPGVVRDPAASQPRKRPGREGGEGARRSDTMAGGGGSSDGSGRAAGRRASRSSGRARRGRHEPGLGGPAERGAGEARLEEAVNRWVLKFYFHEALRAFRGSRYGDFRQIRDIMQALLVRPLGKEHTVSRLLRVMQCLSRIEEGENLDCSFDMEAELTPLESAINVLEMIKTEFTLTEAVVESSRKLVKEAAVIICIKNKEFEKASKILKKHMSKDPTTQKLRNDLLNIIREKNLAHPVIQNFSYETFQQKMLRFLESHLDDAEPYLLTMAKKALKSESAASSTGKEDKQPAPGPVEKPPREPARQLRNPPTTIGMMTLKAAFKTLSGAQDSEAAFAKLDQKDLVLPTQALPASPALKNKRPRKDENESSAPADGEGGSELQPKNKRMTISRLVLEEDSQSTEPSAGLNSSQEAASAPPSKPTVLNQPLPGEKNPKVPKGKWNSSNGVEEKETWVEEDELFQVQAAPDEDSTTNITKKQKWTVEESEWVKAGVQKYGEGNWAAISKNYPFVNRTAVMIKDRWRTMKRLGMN

What was measured:
[1] = molecular target: T1, Repressor/activator protein 1 (RAP1; TRF2-interacting protein), endogenous (human (endogenous in HeLa and SH-SY5Y)) (UniProt Q9NYB0); assay: co-IP; SH-SY5Y whole cell lysates, baseline conditions; CHAPS lysis buffer; anti-LAP1, anti-TRF2 or anti-RAP1 on Dynabeads Protein G, overnight 4 °C; immunoblot
T1 sequence: B1 chain

[2] = molecular target: Human LAP1B ∆A185 (shorter LAP1B variant lacking alanine 185, variant 2), in vitro translated (human) (UniProt Q5JTV8); assay: far-Western, overlay or dot blot; LAP1B–IVT and LAP1B ∆A185–IVT resolved by 10% SDS–PAGE and transferred to nitrocellulose; blocked in 3% BSA/TBS-T; overlaid with HeLa nuclear extract (in PBS) for 1 h; bound TRF2 detected with anti-TRF2 antibody
[3] = molecular target: Human full-length LAP1B (lamina-associated polypeptide 1B, variant 1), in vitro translated (human) (UniProt Q5JTV8); assay: as above
[4] = molecular target: Telomeric repeat-binding factor 2 (TRF2), endogenous (human (endogenous in HeLa and SH-SY5Y)) (UniProt Q15554); assay: co-IP; SH-SY5Y whole cell lysates, baseline conditions; CHAPS lysis buffer; anti-LAP1, anti-TRF2 or anti-RAP1 on Dynabeads Protein G, overnight 4 °C; immunoblot

Molecule	binding [1]	binding [2]	binding [3]	binding [4]
Telomeric repeat-binding factor 2 (TRF2), endogenous (from UniProt Q15554-3 1-542)	binds	binds	binds	–
B1	–	–	–	binds

— paper PMC7465990
